PubChem BioAssay AID1159578 | Peter MacCallum Cancer Centre | 2015
Shown is an unselected part of about 18,000 deposited reagents. Of all reagents, about 1,030 (5.7%) got an active call. 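Inactive calls also include pools with fewer than 3300 nuclei, whose migration was not assessed.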 Raw values vary from plate to plate and are shown uncorrected. Unmarked entries are inactive. Not all columns of the deposit are shown.

Test: 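Knock-downs that alter how fast lymphatic endothelial cells migrate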 (primary screen)
Cell system: human lymphatic endothelial cells
Knock-down reagent: siRNA pool against human genes, 40 nM
Timing: 48 h after transfection
Measured: 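Cells stained with dye and imaged after a scratch; covered wound area and nuclei counted, duplicates averaged, migration set against mock wells and turned into a robust z-score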
Direction: migration robust z-score: higher = faster migration into the scratch; nuclei per well: higher = more cells in the well
Call rule: 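Pools averaging fewer than 3300 nuclei are never called; remaining pools count as changed when migration robust z lies outside -2 to 2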
Calls: active = migration changed; inactive = no migration change, or too few cells

Gene | migration robust z-score | migration class with cell-count check | nuclei per well, duplicate mean
INSL6 (insulin like 6) | 0.36 | migration z between -2 and 2; enough cells | 4602
NXT1 (nuclear transport factor 2 like export factor 1) | 0.31 | migration z between -2 and 2; enough cells | 5282
MRPL15 (mitochondrial ribosomal protein L15) | -1.44 | migration z between -2 and 2; enough cells | 5890
CFTR (CF transmembrane conductance regulator) | 1.32 | migration z between -2 and 2; enough cells | 5556
BLOC1S6 (biogenesis of lysosomal organelles complex 1 subunit 6) | 1.27 | migration z between -2 and 2; enough cells | 4956
CASQ2 (calsequestrin 2) | -0.05 | migration z between -2 and 2; enough cells | 6136
DEFB1 (defensin beta 1) | 2.9 (active) | migration z above 2; enough cells | 5558
ZNF174 (zinc finger protein 174) | -0.42 | migration z between -2 and 2; enough cells | 5102
RGS9BP (regulator of G protein signaling 9 binding protein) | 0 | migration z between -2 and 2; enough cells | 5634
KHDRBS2 | -0.4 | migration z between -2 and 2; enough cells | 5490
HOMER1 (homer scaffold protein 1) | 0.98 | migration z between -2 and 2; enough cells | 7348
TPRG1 (tumor protein p63 regulated 1) | -0.57 | migration z between -2 and 2; enough cells | 5972
METAP2 (methionyl aminopeptidase 2) | -1.22 | migration z between -2 and 2; enough cells | 4342
POM121L2 (POM121 transmembrane nucleoporin like 2) | -1.64 | migration z between -2 and 2; enough cells | 6382
URI1 (URI1 prefoldin like chaperone) | 1.27 | migration z between -2 and 2; enough cells | 5972
YTHDF3 (YTH N6-methyladenosine RNA binding protein F3) | -0.28 | migration z between -2 and 2; enough cells | 4429
HORMAD1 (HORMA domain containing 1) | 1.69 | migration z between -2 and 2; enough cells | 6256
NEIL2 (nei like DNA glycosylase 2) | -0.54 | migration z between -2 and 2; enough cells | 5116
OR14I1 (olfactory receptor family 14 subfamily I member 1) | 0.75 | migration z between -2 and 2; enough cells | 5017
ZBED1 (zinc finger BED-type containing 1) | -0.22 | migration z between -2 and 2; enough cells | 6262
RPS19BP1 (ribosomal protein S19 binding protein 1) | -1.75 | under 3300 nuclei; migration not judged | 2794
CRYGC (crystallin gamma C) | 1 | migration z between -2 and 2; enough cells | 6123
CDH23 (cadherin related 23) | 0.26 | migration z between -2 and 2; enough cells | 6104
GRM3 (glutamate metabotropic receptor 3) | 0.93 | migration z between -2 and 2; enough cells | 6360
SLC25A43 | -0.75 | migration z between -2 and 2; enough cells | 5592
CHPF (chondroitin polymerizing factor) | 0.18 | migration z between -2 and 2; enough cells | 4534
ANKRD35 (ankyrin repeat domain 35) | -0.01 | migration z between -2 and 2; enough cells | 7352
CA3 (carbonic anhydrase 3) | -1.09 | migration z between -2 and 2; enough cells | 5573
KDM4C (lysine demethylase 4C) | -0.3 | migration z between -2 and 2; enough cells | 5615
NDUFS5 (NADH:ubiquinone oxidoreductase subunit S5) | -1.5 | migration z between -2 and 2; enough cells | 5959
TIMM8A (translocase of inner mitochondrial membrane 8A) | 0.62 | migration z between -2 and 2; enough cells | 6211
NALCN (sodium leak channel, non-selective) | -0.62 | migration z between -2 and 2; enough cells | 5124
MRPL18 (mitochondrial ribosomal protein L18) | -0.47 | migration z between -2 and 2; enough cells | 8048
ATP6AP1L (ATPase H+ transporting accessory protein 1 like (pseudogene)) | -0.01 | migration z between -2 and 2; enough cells | 6298
SMAD5 (SMAD family member 5) | -0.36 | migration z between -2 and 2; enough cells | 8403
LNP1 (leukemia NUP98 fusion partner 1) | 0.38 | migration z between -2 and 2; enough cells | 6018
NSA2 (NSA2 ribosome biogenesis factor) | -1.62 | migration z between -2 and 2; enough cells | 4299
SLC17A1 | 0.62 | migration z between -2 and 2; enough cells | 5088
NSG2 (neuronal vesicle trafficking associated 2) | 0.09 | migration z between -2 and 2; enough cells | 5518
CCDC134 (coiled-coil domain containing 134) | 0.24 | migration z between -2 and 2; enough cells | 6550
ZNF658B (zinc finger protein 658B (pseudogene)) | 1.72 | migration z between -2 and 2; enough cells | 4710
RBBP9 (RB binding protein 9, serine hydrolase) | 0.02 | migration z between -2 and 2; enough cells | 4926
SIGLEC10 (sialic acid binding Ig like lectin 10) | 0.61 | migration z between -2 and 2; enough cells | 6230
PANK1 (pantothenate kinase 1) | -0.29 | migration z between -2 and 2; enough cells | 4270
KNG1 (kininogen 1) | 0.73 | migration z between -2 and 2; enough cells | 4768
JAK2 (Janus kinase 2) | 0 | migration z between -2 and 2; enough cells | 4258
TAF7L (TATA-box binding protein associated factor 7 like) | 0.42 | migration z between -2 and 2; enough cells | 5841
LHX5 (LIM homeobox 5) | 1.46 | migration z between -2 and 2; enough cells | 6668
ZFP64 (ZFP64 zinc finger protein) | -0.08 | migration z between -2 and 2; enough cells | 3987
OR51B2 (olfactory receptor family 51 subfamily B member 2) | -0.34 | migration z between -2 and 2; enough cells | 5720
ARHGEF10 (Rho guanine nucleotide exchange factor 10) | -0.05 | migration z between -2 and 2; enough cells | 6366
RASGEF1B (RasGEF domain family member 1B) | 1.68 | migration z between -2 and 2; enough cells | 6540
NKIRAS2 (NFKB inhibitor interacting Ras like 2) | 1.15 | migration z between -2 and 2; enough cells | 6328
EHBP1 (EH domain binding protein 1) | -0.48 | migration z between -2 and 2; enough cells | 6158
LCTL (lactase like) | -0.44 | migration z between -2 and 2; enough cells | 6331
ARHGAP45 (Rho GTPase activating protein 45) | -0.36 | migration z between -2 and 2; enough cells | 4192
CNTNAP2 (contactin associated protein 2) | 0.91 | migration z between -2 and 2; enough cells | 7080
LCA5L (lebercilin LCA5 like) | 2.06 (active) | migration z above 2; enough cells | 7406
SLC39A2 | -0.62 | migration z between -2 and 2; enough cells | 4699
PRR3 (proline rich 3) | 1.45 | migration z between -2 and 2; enough cells | 5980
VMAC | 1.65 | migration z between -2 and 2; enough cells | 6873
CACNA1B (calcium voltage-gated channel subunit alpha1 B) | 0 | migration z between -2 and 2; enough cells | 6896
DSC2 (desmocollin 2) | 0.16 | migration z between -2 and 2; enough cells | 5729
SET (SET nuclear proto-oncogene) | 0.16 | migration z between -2 and 2; enough cells | 4974
CALML4 (calmodulin like 4) | 1.04 | migration z between -2 and 2; enough cells | 6864
FAR2 (fatty acyl-CoA reductase 2) | 0.88 | migration z between -2 and 2; enough cells | 6137
ZNF688 (zinc finger protein 688) | 0.85 | migration z between -2 and 2; enough cells | 6912
LY6E (lymphocyte antigen 6 family member E) | 0.26 | migration z between -2 and 2; enough cells | 5881
STON2 (stonin 2) | -4.68 | under 3300 nuclei; migration not judged | 1330
NDUFS4 (NADH:ubiquinone oxidoreductase subunit S4) | -0.13 | migration z between -2 and 2; enough cells | 4362
ANKS1A (ankyrin repeat and sterile alpha motif domain containing 1A) | -1.92 | migration z between -2 and 2; enough cells | 6646
FBL (fibrillarin rRNA 2'-O-methyltransferase) | -0.12 | migration z between -2 and 2; enough cells | 5738
AHSP (alpha hemoglobin stabilizing protein) | -0.35 | migration z between -2 and 2; enough cells | 5012

Sorted by “nuclei per well, duplicate mean” (highest first): some entries from above.
Gene | migration robust z-score | migration class with cell-count check | nuclei per well, duplicate mean
CNTNAP2 (contactin associated protein 2) | 0.91 | migration z between -2 and 2; enough cells | 7080
LCTL (lactase like) | -0.44 | migration z between -2 and 2; enough cells | 6331
EHBP1 (EH domain binding protein 1) | -0.48 | migration z between -2 and 2; enough cells | 6158
ARHGAP45 (Rho GTPase activating protein 45) | -0.36 | migration z between -2 and 2; enough cells | 4192
